In PubChem BioAssay AID595 (National Center for Advancing Translational Sciences (NCATS), 2007):
Several values for one entry are separate records, joined by “and”; a condition that tells them apart may be missing. Identical values can stand only once. The whole screen tested about 71,000 compounds, of which about 310 (0.44%) were called active. Inconclusive means that the source gave no clear call. Such entries were picked first, then a sample of the others. Calls follow the shape of the dose curve; as a rule, active = well fitted curve in either direction with a large enough effect; inconclusive = small, poorly fitted or top-dose-only effect, or another doubt; inactive = flat fitted curve, though single readings scatter. Potencies beside an inconclusive call are fits to weak or partial responses and may not hold up.

What follows are compounds tested on Hsp90 C-terminal peptide / TPR2A (Hop) interaction, human (assay: qHTS Assay for Disrupters of an Hsp90 Co-Chaperone Interaction). Settings: AlphaScreen TPR2A-His6 binding biotin-Hsp90 C-terminal peptide; activity change, negative = inhibition: at 57 µM (top of the series) unless noted.
% is scaled to controls: 0 for no effect and ±100 for the full control effect; potency is read from the fitted curve at half-maximal effect.

| Compound | Potency | activity change, negative = inhibition |
| --- | --- | --- |
| COc1ccc2nc3c(cc2c1)c(NC(=O)C1CCCO1)nn3CC(C)C (stereo not given) | inconclusive: 25.1 µM [activator, partial curve] | – |
| COc1ccc2nc(C)[nH]c(=O)c2c1 | – | inconclusive: 53.6% |
| Cc1cc(N)c(-n2cc3c(=O)n(C)c(=O)n(C)c3c2)cc1C | – | inconclusive: 37.1% |
| COc1ccc(Oc2ncc3nc(-c4cn(C)c5ccccc45)c(=O)n(CCC#N)c3n2)cc1 | active: 5.01 µM [activator] | – |
| COC(=O)CSc1nc2c(c(=O)n(C)c(=O)n2C)n1CCCc1ccccc1 | – | inactive |
| CCOc1ccc2nc(NC(=O)C(NS(=O)(=O)c3cccs3)C(C)C)sc2c1 (stereo not given) | – | inactive |
| c1ccc(CN2CCN(c3nc(-c4ccccc4)nc(-n4ccnc4)n3)CC2)cc1 | inconclusive: 20 µM [inhibitor, partial curve] | – |
| O=C1c2c(O)ccc([N+](=O)[O-])c2C(=O)c2c([N+](=O)[O-])ccc(O)c21 | inconclusive: 15.8 µM [inhibitor, partial curve] | – |
| CC1CCN(CC[S-])CC1.O.O.[Cl][Pt] | – | inconclusive: 82.2% [at 11 µM] |
| CCN(CCCNC(=O)CCNC(=O)Cn1ccc2ccccc2c1=O)c1ccccc1 | – | inconclusive: 31.6% |
| O=C(Nc1sc2c(c1C(=O)NCC1CCCO1)CCCC2)c1cccs1 (stereo not given) | inconclusive: 3.98 µM [activator, single point] | – |
| O=C(COC(=O)C1CCC1)NCc1ccccc1Cl | – | inactive |
| N#Cc1nc(COc2ccc(Cl)cc2)oc1N1CCCC1 | inconclusive: 12.6 µM [inhibitor, partial curve] | – |
| CCOC(=O)c1oc2ccccc2c1NC(=O)c1ccccc1OC | inconclusive: 25.1 µM [activator, single point] | – |
| O=C(c1cnc(N2CCN(c3ncccn3)CC2)c2ccccc12)N1CCN(c2ncccn2)CC1 | – | inconclusive: 65.8% |
| CCN(CC)CCNC(=O)Cc1c(C(=O)O)n(C)c2ccccc12 | – | inactive |
| CCOC(=O)c1ccc(N=Cc2nc3ccccc3n2C)cc1 | – | inactive |
| Cc1ccc(-c2nn(-c3ccccc3)cc2CN(Cc2ccccc2)C(=O)CCC(=O)O)o1 | – | inconclusive: 29.3% |
| CN(C)c1nc(SCCOC(=O)COc2ccc(Cl)cc2Cl)nc(N(C)C)n1 | inconclusive: 31.6 µM [activator, single point] | – |
| COc1ccc(CCNc2oc(COc3ccc(Br)cc3)nc2C#N)cc1OC | inconclusive: 31.6 µM [inhibitor, single point] | – |
| Cc1ccc(Cl)cc1N1CCN(S(=O)(=O)c2cccc(S(=O)(=O)N3CCCC3)c2)CC1 | – | inconclusive: 53.2% |
| COc1cccc2c1OC1(C)CC2NC(=O)N1c1cccc(C(=O)N2CCN(c3ccccn3)CC2)c1 (stereo not given) | – | inconclusive: 46.6% |
| CCNc1nc(Oc2ccc(=O)n(C)n2)nc(N2CCOCC2)n1 | – | inconclusive: 40.3% |
| c1ccc(C2=Nn3c(nnc3-c3cc(-c4ccccc4)n[nH]3)SC2)cc1 | – | inactive |
| COc1cccc(-c2nccc(NCc3cccc(C)c3)n2)c1 | – | inactive |

| Compound | Potency | activity change, negative = inhibition |
| --- | --- | --- |
| O=C(NC12CCC(O)C(SC1)/C2=N/O)c1ccccc1 (stereo not given) | – | inconclusive: 50.6% |
| CC1Cc2ccccc2N1C(=O)c1cnsn1 (stereo not given) | – | inconclusive: 48.3% |
| CC(C)C[C@@H](CC(=O)N[C@@H](CCC(=O)O)CC(=O)O)NC(=O)[C@@H]1CNCC[C@H]1NC(=O)C[C@@H](NC(=O)C[C@H](Cc1c[nH]c2ccccc12)NC(=O)[C@@H]1CNCC[C@H]1N)C(C)C | – | inactive |
| CCc1c(C)sc(NC(=O)c2ccc(Br)o2)c1C(=O)OC | inconclusive: 25.1 µM [activator, single point] | – |
| CC(C)OC(=O)C(C)(C)Oc1ccc(C(=O)c2ccc(Cl)cc2)cc1 | inconclusive: 25.1 µM [activator, partial curve] and inconclusive: 15.8 µM [activator, single point] | – |
| CC(=O)OC[C@@H]1O[C@@H](Oc2cc(OC(C)=O)c3c(=O)cc(-c4ccc(OC(C)=O)c(OC(C)=O)c4)oc3c2)[C@H](OC(C)=O)[C@H](OC(C)=O)[C@@H]1OC(C)=O | inconclusive: 12.6 µM [inhibitor, partial curve] | – |
| COC(=O)C1[C@H]2C(=O)N(Cc3cccs3)C[C@]23C=C[C@H]1O3 (stereo not given in full) | – | inconclusive: 43.3% |
| COc1ccc(Nc2ccc3c(c2)=NC2(CCCCC2)[N+]=3[O-])cc1 | inconclusive: 31.6 µM [inhibitor, single point] | – |
| NC(=O)c1ccccc1N/C=C/C(=O)c1ccco1 | – | inactive |
| O=C(CSc1nnc(-c2cccs2)o1)OC1CCCCC1 | inconclusive: 20 µM [activator, single point] | – |
| COc1ccc(-c2nn3c(-c4ccc(F)cc4)nnc3s2)cc1 | – | inconclusive: 29.4% |
| CCn1c(SCC(=O)c2[nH]c(C)c(C(C)=O)c2C)nnc1-c1cccs1 | – | inconclusive: 43.6% |
| O=c1cc(-c2ccccc2)[nH]n1-c1nc2ccccc2[nH]1 | inconclusive: 31.6 µM [inhibitor, single point] | – |
| c1ccc(Cn2nnnc2C(c2cccs2)N2CCCCCC2)cc1 (stereo not given) | inconclusive: 31.6 µM [activator, single point] | – |
| C[C@@H](CCc1ccc(O)cc1)NCCc1ccc(O)c(O)c1 | inconclusive: 12.6 µM [inhibitor, single point] | – |
| COc1ccc(OCc2nc(C#N)c(N3CCN(c4ccc(OC)cc4)CC3)o2)cc1 | inconclusive: 10 µM [inhibitor, partial curve] | – |
| C=CCOc1ccccc1CNn1nnnc1N | – | inactive |
| COC(=O)C1(Cc2ccccc2)C2c3cc(C(=O)N4CCCC4)n(Cc4ccc(OC(F)(F)F)cc4)c3CC2CN1C(=O)c1ccccc1 (stereo not given) | – | inactive |
| CCOC(=O)C1=C(C)NC2=C(C(=O)CC(c3ccc(OC)c(OC)c3)C2)C1c1ccc(C)o1 (stereo not given) | – | inconclusive: 36.7% |
| C[C@@H]1C[C@@]2(C)Oc3ccccc3[C@H]3OC[C@]1(COC(=O)Nc1ccccc1)[C@@H](C)[C@@H]32 | – | inactive |
| Cc1coc(NC(=O)CSc2nc(-c3ccncc3)cc(C(F)(F)F)c2C#N)n1 | – | inactive |
| O=C(COc1ccc(Cl)cc1Cl)NC(=O)N1CCCCC1 | – | inactive |
| CCN(Cc1cc2ccccc2[nH]c1=O)S(=O)(=O)c1ccccc1 | – | inactive |
| Cc1cccc(-n2c(SCC(N)=O)nnc2-c2ccccn2)c1C | inconclusive: 25.1 µM [inhibitor, partial curve] | – |
| COC(=O)c1ccccc1Nc1cc(C)nc2nc(C)nn12 | – | inactive |

| Compound | Potency | activity change, negative = inhibition |
| --- | --- | --- |
| Cc1ccc(N=Nc2c(O)ccc3cc(S(=O)(=O)O)ccc23)cc1 | inconclusive: 3.16 µM [inhibitor, partial curve] | – |
| Cc1nn(-c2ccccc2)c2[nH]c(=O)c(CNc3ccc(N4CCOCC4)cc3)cc12 | inconclusive: 31.6 µM [inhibitor, single point] | – |
| COc1ccc(-c2noc(CSc3ccccc3)n2)cc1OC | inconclusive: 31.6 µM [activator, single point] | – |
| Cc1cc(C)nc(N2CCCC(C(=O)Nc3ccc4nc(C)c(C)nc4c3)C2)n1 (stereo not given) | – | inactive |
| CC1CC2(CC(C)(C(=O)CSc3nc4ccccc4s3)OC2=O)C(=O)O1 (stereo not given) | – | inactive |
| c1ccc(CNc2ccc3ccccc3n2)nc1 | – | inconclusive: 39.8% |
| O=C(CCCCn1c(=O)[nH]c2ccccc2c1=O)NC1CCN(Cc2ccccc2)CC1 | – | inactive: -5.97% [at 2.3 µM] |
| O=C(Nc1ccc(N2CCCC2)c(Cl)c1)c1ccc(Br)o1 | – | inconclusive: -10.3% [at 11 µM] |
| CC(=O)Nc1cc(C(=O)O)ccc1S(=O)(=O)c1ccc(Cl)cc1 | – | inconclusive: 37.1% |
| CCCn1c(N)c(C(=O)CSc2nc3ccccc3n2CCC#N)c(=O)n(C)c1=O | – | inactive |
| COc1ccc([C@@H]2OC[C@]3(COC(C)=O)[C@H](C)C=C(C)[C@@H]2[C@H]3C)cc1 | inconclusive: 39.8 µM [activator, single point] | – |
| Cc1cc(C(=O)CSc2nc3ccccc3o2)c(C)n1C1CC1 | – | inconclusive: 46.2% |
| O=C(c1ccco1)N1CCC2(CC1)CCN(c1cccc(-c3ccccc3)c1)CC2 | inconclusive: 31.6 µM [inhibitor, single point] | – |
| O=C(CCN1c2ccccc2Sc2ccccc21)OCC(=O)N1CCN(C(=O)c2ccco2)CC1 | – | inconclusive: 2% |
| O=C(COc1ccc2c(c1)C(=O)CC1(CCCCC1)O2)NCc1ccccn1 | inconclusive: 25.1 µM [inhibitor, partial curve] | – |
| O=C(CSc1nnc(-c2cccnc2)n1Cc1ccco1)c1ccc(Br)cc1 | – | inconclusive: 34.6% |
| c1cncc(CNc2cc(-c3ccc4c(c3)OCO4)ncn2)c1 | – | inconclusive: 84.1% |
| Cc1ccc(C(=O)Nc2nnn(C)n2)cc1 | – | inactive |
| Cc1ccc2c(c1)N(C(=O)CSc1nncn1C)C(C)(C)c1ssc(=S)c1-2 | inconclusive: 25.1 µM [inhibitor, single point] | – |
| O=C(c1cnccn1)N1CCC[C@@]2(CCN(c3cccc(-c4ccccc4)c3)C2)C1 | inconclusive: 39.8 µM [inhibitor, single point] | – |
| O=C(c1cccc(F)c1)N1CCC2(CC1)CN(c1ccccc1)C2 | – | inactive |
| CC1=C(C#N)C(c2ccoc2)C(C(=O)OCc2ccccc2)=C(N)S1 (stereo not given) | – | inactive |
| CCN(CC)CC(=O)Nc1cc(C)c2c(=O)oc3ccccc3c2n1 | – | inactive |
| CCc1ccccc1OCC(=O)Nc1ccc(S(N)(=O)=O)cc1 | – | inactive |
| Cc1cccc(OCCCC(=O)O)c1C | – | inconclusive: 52.6% |
